Measurements reported in PubChem BioAssay AID504465 (National Center for Advancing Translational Sciences (NCATS), 2011).
The campaign covered roughly 2,100 compounds. About 210 (10%) were called active. This list was built around the results that the source calls inconclusive (neither active nor inactive); the mix of calls is not that of the screen. Calls come from the whole dose curve; as a rule, active = well fitted inhibition curve with a large enough effect; inconclusive = small, poorly fitted or top-dose-only effect, or effect the other way; inactive = no such curve, though single readings can be large or run the other way. Where the call is inconclusive, the potency comes from a doubtful curve fit.
Potency is the fitted concentration of half-maximal effect.

Assay: IN Cell qHTS Assay for Inhibitors of the mTORC1 Signaling Pathway in MEF (Tsc2-/-, p53-/-) Cells: Sytravon; note: nearly all actives have a fitted effect of over 60% in size
Conditions: phospho-rpS6 immunofluorescence, 24 h; activity, negative = inhibition: at 38.3 µM (top of the series)
Source text: NIH Molecular Libraries Probe Production Centers Network [MLPCN] NIH Chemical Genomics Center [NCGC] MLPCN Grant: NS059428-01 Assay Submitter (PI): Blenis, John; Hoffman, Greg; Harvard University NCGC Assay Overview: Thee mammalian target of rapamycin (mTOR) is an intracellular serine/threonine kinase Aberrant regulation of mTOR signaling plays a causative role in a number of human diseases, including cancer, benign tumors such as lymphangioleiomyomatosis (LAM) and Tuberous Sclerosis Complex (TSC), and metabolic diseases such as diabetes and obesity. This project aims to identify inhibitors of ribosomal protein S6 (rpS6) phosphorylation. The phosphorylation of rpS6 is a key event downstream of mTOR activation. The assay uses a phospho-specific antibody of phospho-rpS6 to detect inhibitors of mTOR activation. Mutations in the Tsc1 and Tsc2 genes are the underlying genetic lesions responsible for TSC, causing constitutive activation of the mTORC1 pathway and leading to profound effects on cell metabolism. Aberrant metabolism in cancer has recently received significant attention as a target to develop therapeutic agents in the treatment of cancer1. As Tsc2-/- cells have lost the ability to respond to energy and growth factor deprivation, these cells are unable to properly down regulate cellular biosynthetic processes in response to metabolic stress, and are thus extremely sensitive to glucose deprivation-induced death.2 A central goal of this project is to explore the unique cell survival and metabolic properties of cells with Tsc1 or Tsc2 by screening for compounds that selectively target the Tsc2-/- MEFs by screening both Tsc2-/- and WT MEF cell lines. We hope to better understand these aspects of TSC physiology in order to exploit them for therapeutic benefit.
NCGC IN Cell Assay Protocol: For quantitative high throughput analysis of mTORC1 signaling, we developed a cell-based assay for immuno-fluorescence based detection of rpS6 phosphorylation on the Acumen Explorer that will be used a platform for the primary small molecule screen. Mouse embryonic fibroblasts (MEFs) are cultured in 1536-well plates using DMEM + 10% FBS. Twenty-four hrs after plating, test compounds (solubilized in DMSO) are delivered and incubated with the cells for 24 hrs at 37 degree Celsius. Following the incubation, media with compound is aspirated and the cells are fixed in 4% paraformaldehyde (PFA) containing PBS + 0.2% TX-100. Next, PFA is aspirated, cells are washed two times with PBS plus 0.2% TX-100 and the cells are blocked for 1 hr at room temperature (blocking buffer: LiCOR Blocking Buffer plus 0.2% TX-100). This is followed by aspiration and staining with Alexa-488 conjugated-phospho-rpS6 Ser235/236 antibody for 2 hours at room temperature (Cell Signaling Technology # 4803, 1:50 dilution in blocking buffer). Cells are washed two times with PBS plus 0.2% TX-100, and stained with 10 uM propidium iodide (PI) for 20-25 minutes for cell number measurement (1:500 dilution of Hoescht staining is also added for IN Cell imaging). Active wells which are selected (based on Acumen results) are imaged on the IN Cell 1000 (GE Healthcare) using the D360/40X and HQ480/40X excitation filters for the Hoechst and Alexa-488 cytoplasmic stains, respectively. The fluorescence emission filters used were HQ460/40M and HQ535/50M for the Hoechst and Alexa-488 cytoplasmic stains, respectively. The normalized phospho-S6 staining is calculated as the ratio of […] for the single concentration rapamycin control (7.5 nM) and DMSO columns. […] Inhibition of the pathway is defined based on the normalized phospho-S6 intensity in rapamycin treated cells. Each treatment is reported as the % positive cells in the well, where thresholds are defined by selecting wells with the highest and lowest signal and differentiating between the % non-active and % active populations. […]
In the case of Cc1ccc(CN2CCC(CNC(=O)Nc3cccc(Cl)c3C)C2)cc1 (stereo unspecified), the Potency is reported as inconclusive: 23.3 µM [falling, partial curve, poor fit].
With O=C1C(Nc2ccccc2)=CC(c2ccc(Br)cc2)N1c1ccccc1 (stereo unspecified) the “activity, negative = inhibition” value was inactive: -8.7%.
For COC(=O)c1scc(-c2ccc(C)cc2)c1S(=O)(=O)Nc1ccc(N(C)C)cc1, the Potency was inconclusive: 1.85 µM [falling, partial curve, poor fit].
For Nc1c(C(=O)c2ccc(F)cc2)sc(Nc2ccccc2F)c1S(=O)(=O)c1ccc(Br)cc1, the “activity, negative = inhibition” value was inactive: 0.296%.
In the case of COc1ccccc1CNC(=O)c1ccc2c(c1)CCN2S(=O)(=O)c1ccccc1, the “activity, negative = inhibition” value is reported as inactive: -26%.
With CCCCOc1ccc(CN2C(=O)C(=O)c3cc(Br)cc(C)c32)cc1OC the Potency was active: 5.85 µM.
In the case of Cc1cccc(OCC(=O)Nc2ccccc2OCc2cc(=O)n3ccccc3n2)c1, the “activity, negative = inhibition” value is reported as inactive: -6.25%.
In the case of Cn1nnnc1SCCCNCc1ccccc1OCc1ccccc1Cl, the Potency is reported as inconclusive: 1.47 µM [falling, full curve, poor fit].
In the case of Cc1cc(Br)ccc1NC(=O)C1CCN(S(=O)(=O)c2cccc3nsnc23)CC1, the Potency is reported as inconclusive: 20.7 µM [falling, partial curve, poor fit].
With CCOCCCn1c(=N)c(C(=O)NC(C)c2ccccc2)cc2c(=O)n3cccc(C)c3nc21 (stereo unspecified) the Potency was inconclusive: 16.5 µM [falling, single point].
In the case of Cc1ccc2occ(CC(=O)Nc3ccc(Cl)c(C(F)(F)F)c3)c2c1, the Potency is reported as active: 13.1 µM.
In the case of COc1cc(-c2oc3ccc(C)cc3c(=O)c2O)cc(OC)c1OC, the Potency is reported as inconclusive: 23.3 µM [falling, single point].
In the case of CC(=O)N1CCOc2cc(S(=O)(=O)Nc3c(C)cccc3C(C)C)c(Cl)cc21, the “activity, negative = inhibition” value is reported as inactive: -13%.
With CCN1CCc2c(sc(NC(=O)c3ccc(S(=O)(=O)N4CCCC(C)C4)cc3)c2C(=O)OC)C1 (stereo unspecified) the “activity, negative = inhibition” value was inactive: 6.25%.
In the case of O=C(NCc1ccccc1Cl)c1nnc(Cc2cccc(F)c2)o1, the “activity, negative = inhibition” value is reported as inactive: -10.8%.
For O=C1CSC2(C(=O)N(Cc3cccc(C(F)(F)F)c3)c3ccccc32)N1c1ccc(F)c(F)c1 (stereo unspecified), the “activity, negative = inhibition” value was inactive: -6.7%.
In the case of COc1ccc(OC)c(NC(=O)c2nc(S(=O)(=O)Cc3ccc(F)cc3)ncc2Cl)c1, the Potency is reported as active: 2.33 µM.
With Cc1ccc(OCC(=O)NCC2(N3CCN(C)CC3)CCCCC2)cc1 the “activity, negative = inhibition” value was inactive: -19.1%.
With COc1ccc(-n2c(SCCC(C)C)nc3sc4c(c3c2=O)CC(C(C)C)OC4)cc1 (stereo unspecified) the “activity, negative = inhibition” value was inactive: 8.33%.
For O=C(Nc1cc(Cl)cc(Cl)c1)c1cc(S(=O)(=O)NC2CCCC2)ccc1F, the “activity, negative = inhibition” value was inactive: 6.25%.
In the case of CCC(C)S(=O)(=O)c1oc(-c2cccs2)nc1S(=O)(=O)c1ccccc1 (stereo unspecified), the Potency is reported as active: 1.47 µM.
With CCOCc1cc(CN2CCN(c3cccc(C(F)(F)F)c3)CC2)c(O)c2ncccc12 the “activity, negative = inhibition” value was inactive: -28%.
With COc1cccc(-n2c(SCc3cccc(C)c3)nc3c([nH]c4ccccc43)c2=O)c1 the “activity, negative = inhibition” value was inactive: -10.7%.
In the case of CC(C)(C)C(=O)Nc1ccc(-c2nc3ccc(NC(=O)C(C)(C)C)cc3[nH]2)cc1, the Potency is reported as inconclusive: 11.7 µM [falling, partial curve].
In the case of Cc1cccc(CNC(=O)Cn2c(-c3cccs3)cc3ccccc32)c1, the Potency is reported as inconclusive: 6.56 µM [falling, partial curve, poor fit].
For COc1ccc(NC(=O)c2c(C)oc3ccc(O)c(CN4CCC(C)CC4)c23)cc1Cl, the Potency was active: 13.1 µM.
For Cc1ccc(C)c(Cn2c3ccccc3c3cnn(CC(=O)NC(C)CCc4ccccc4)c(=O)c32)c1 (stereo unspecified), the Potency was inconclusive: 4.65 µM [falling, single point].
In the case of CC(C)Oc1ccccc1-c1nc(SCC(=O)c2ccc(F)cc2)n[nH]1, the “activity, negative = inhibition” value is reported as inactive: -19.3%.
For Cc1ccc(CN2CCC(CNC(=O)c3cnn(-c4ccccc4Cl)c3C3CCN(C(=O)OC(C)(C)C)CC3)CC2)cc1, the Potency was inconclusive: 26.1 µM [falling, single point].
In the case of COc1ccc(NC(=O)[C@H]2O[C@@H]3OC(C)(C)O[C@@H]3[C@H]3OC(C)(C)O[C@H]32)c(OC)c1, the “activity, negative = inhibition” value is reported as inactive: -0.729%.
For Cc1ccccc1Oc1nc2ccccn2c(=O)c1/C=C(\C#N)c1nc2ccccc2[nH]1, the “activity, negative = inhibition” value was inactive: 10.8%.
In the case of Cc1c(C(=O)NCc2cccc(Cl)c2)sc2nc3n(c(=O)c12)CCC3, the Potency is reported as inconclusive: 26.1 µM [falling, partial curve, poor fit].
For CCC1=Nc2cc(C(=O)NCCCOC)ccc2Sc2ccc(Br)cc21, the Potency was inconclusive: 14.7 µM [falling, partial curve].
For COc1ccc(CCN2C(=O)c3[nH]nc(-c4ccccc4O)c3C2c2ccccc2)cc1 (stereo unspecified), the “activity, negative = inhibition” value was inactive: -4.54%.
With O=S(=O)(c1ccccc1)c1nc(-c2cccc(Cl)c2)oc1N1CCOCC1 the Potency was active: 9.27 µM.
For O=C(Nc1cccc(C(F)(F)F)c1)c1cccc(C(=O)Nc2cccc(C(F)(F)F)c2)c1, the Potency was inconclusive: 13.1 µM [falling, partial curve, poor fit].
